Data source: PubChem BioAssay AID686937 (Drosophila RNAi Screening Center, 2013)
Screen: 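Genes whose loss weakens secretory pathway function in fly cells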 (primary screen). Cell system: Drosophila S2 cells expressing secreted horseradish peroxidase. Reagent: long dsRNA against Drosophila genes. Time to read-out: about 5.5 days (5 days dsRNA, then 12 h reporter induction). Treatment: reporter expression induced after 5 days of dsRNA, read 12 h later; inducer not stated. Read-out: 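After 5 days of dsRNA and 12 h of reporter induction, medium peroxidase read by chemiluminescence and scored as per-plate z-score; higher values mean more reporter released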. Reading the numbers: z-score: higher = more reporter secreted into medium.
The screen tested about 23,000 reagents; shown is an unselected part of those with a known target gene and a result. 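Reduced-secretion tags in replicate 1 do not always agree with the z-scores; no criterion for assigning the tags was given.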 A plus sign joins genes that one reagent is predicted to hit. Not all columns of the deposit are shown. No sequences are given here. Not given: the amount of reagent.

{"target gene": "beat-VII (GeneID 43213)", "amplicon": "DRSC13780", "z-score, replicate 1": 0.54}
{"target gene": "beat-VII (GeneID 43213)", "amplicon": "DRSC14743", "z-score, replicate 1": 0.39}
{"target gene": "beat-VII (GeneID 43213)", "amplicon": "DRSC14744", "z-score, replicate 1": 0.35}
{"target gene": "beat-VII (GeneID 43213)", "amplicon": "DRSC22825", "z-score, replicate 1": -0.3}
{"target gene": "Or33b (GeneID 34602)", "amplicon": "DRSC03387", "z-score, replicate 1": 0.62}
{"target gene": "CG16865 (GeneID 34788)", "amplicon": "DRSC01904", "z-score, replicate 1": -0.16}
{"target gene": "CG9010 (GeneID 36904)", "amplicon": "DRSC07320", "z-score, replicate 1": 0.51}
{"target gene": "CG13999 (GeneID 33826)", "amplicon": "DRSC02331", "z-score, replicate 1": 0.13}
{"target gene": "CG45105 (GeneID 41932)", "amplicon": "DRSC15002", "z-score, replicate 1": 0.13}
{"target gene": "CG45105 (GeneID 41932)", "amplicon": "DRSC15833", "z-score, replicate 1": -2.37}
{"target gene": "Cpr64Ac (GeneID 38510)", "amplicon": "DRSC08462", "z-score, replicate 1": 0.23}
{"target gene": "Mer (GeneID 32979)", "amplicon": "DRSC20259", "z-score, replicate 1": 0.41}
{"target gene": "CG31664 (GeneID 33359)", "amplicon": "DRSC22084", "z-score, replicate 1": -0.11}
{"target gene": "CG8314 (GeneID 36757)", "amplicon": "DRSC07144", "z-score, replicate 1": 0.13}
{"target gene": "Dh31-R (GeneID 36475)", "amplicon": "DRSC06647", "z-score, replicate 1": -0.08}
{"target gene": "Dh31-R (GeneID 36475)", "amplicon": "DRSC06669", "z-score, replicate 1": 0.35}
{"target gene": "bark (GeneID 33604)", "amplicon": "DRSC00635", "z-score, replicate 1": 0.35}
{"target gene": "Cdc16 (GeneID 42753)", "amplicon": "DRSC16920", "z-score, replicate 1": -0.37}
{"target gene": "CG7560 (GeneID 39276)", "amplicon": "DRSC10879", "z-score, replicate 1": 0.5}
{"target gene": "CG17493 (GeneID 3355126)", "amplicon": "DRSC03798", "z-score, replicate 1": -0.66}
{"target gene": "CG12951 (GeneID 41110)", "amplicon": "DRSC14579", "z-score, replicate 1": 0.56}
{"target gene": "nenya (GeneID 318572)", "amplicon": "DRSC13838", "z-score, replicate 1": 0.1}
{"target gene": "l(3)80Fg (GeneID 3354941)", "amplicon": "DRSC21645", "z-score, replicate 1": -0.13}
{"target gene": "l(3)80Fg (GeneID 3354941)", "amplicon": "DRSC22171", "z-score, replicate 1": -0.41}
{"target gene": "CG13609 (GeneID 42883)", "amplicon": "DRSC14612", "z-score, replicate 1": 0.35}
{"target gene": "CG13609 (GeneID 42883)", "amplicon": "DRSC22843", "z-score, replicate 1": 0.5}
{"target gene": "oxt (GeneID 38288)", "amplicon": "DRSC08522", "z-score, replicate 1": 0.16}
{"target gene": "EndoA (GeneID 42265)", "amplicon": "DRSC14775", "z-score, replicate 1": 0.43}
{"target gene": "mv (GeneID 38259)", "amplicon": "DRSC08208", "z-score, replicate 1": 0.33}
{"target gene": "mv (GeneID 38259)", "amplicon": "DRSC08570", "z-score, replicate 1": 0.44}
{"target gene": "Obp99d (GeneID 43496)", "amplicon": "DRSC15046", "z-score, replicate 1": 0.16}
{"target gene": "nau (GeneID 42799)", "amplicon": "DRSC17011", "z-score, replicate 1": 0.34}
{"target gene": "TTLL1A (GeneID 32704)", "amplicon": "DRSC20121", "z-score, replicate 1": 0.19}
{"target gene": "CG7276 (GeneID 39668)", "amplicon": "DRSC10797", "z-score, replicate 1": 0.24}
{"target gene": "CG15269 (GeneID 34887)", "amplicon": "DRSC01942", "z-score, replicate 1": 0.08}
{"target gene": "Nek2 (GeneID 31696)", "amplicon": "DRSC18124", "z-score, replicate 1": 0.06}
{"target gene": "GATAd (GeneID 34395)", "amplicon": "DRSC02803", "z-score, replicate 1": 0.18}
{"target gene": "Xport-A + Xport-B", "amplicon": "DRSC15586", "z-score, replicate 1": 0.39}
{"target gene": "CG13247 (GeneID 40247)", "amplicon": "DRSC11695", "z-score, replicate 1": 0.28}
{"target gene": "Oatp58Db (GeneID 37544)", "amplicon": "DRSC04364", "z-score, replicate 1": 0.16}

No new results follow: entries from further up.
{"target gene": "CG13999 (GeneID 33826)", "amplicon": "DRSC02331", "z-score, replicate 1": 0.13}
{"target gene": "CG45105 (GeneID 41932)", "amplicon": "DRSC15002", "z-score, replicate 1": 0.13}
{"target gene": "CG45105 (GeneID 41932)", "amplicon": "DRSC15833", "z-score, replicate 1": -2.37}
{"target gene": "Cpr64Ac (GeneID 38510)", "amplicon": "DRSC08462", "z-score, replicate 1": 0.23}
